Laboratory results reported in US4530930A, “Antimicrobial 1-ethyl-6,8-difluoro-1,4-dihydro-7-(1-imidazolyl)-4-oxoquinoline-3-carbo xylic acid derivatives” (Kanebo, Ltd., priority 1982, dated 1985).
Values after ≈ are worked out from the molar mass of the structure shown.

How the values were obtained:
[1] = test system: Serratia marcescens IAM 1184; experiment: MIC; assay type: cell-based; details: IAM1184, gram negative
Method: In accordance with the method as disclosed in Chemotherapy, Vol. 29, pages 76-79 (1981), MIC (μg/ml) of each test compound was measured.

[2] = in vivo; details: mouse, po, mice, one week, Weil method
Method: (§1) The acute toxicities in oral administration and intravenous injection of the test compounds were tested as follows:
In oral administration: To ddY-strain male mice (weighing 20-25 g, five per group) was administered orally a suspension of each test compound in a 0.5% sodium carboxymethylcellulose. One week after the administration of the test compound, the 50% lethal dose (LD50) was determined in accordance with the Weil method [cf. J. Biometric Soc., 8, 249 (1959)].

[3] = Bioavailability in oral administration in mice; design: species or system ddY-strain male mice; details: mouse, in vivo, oral 50 mg/kg
Method: Each of the test compounds was suspended in a 0.5% sodium carboxymethylcellulose to prepare a suspension having a concentration of 5 mg/ml of the compound.
ddY-strain male mice (5 week old, weighing 22 to 25 g, three per group) were used. The suspension was orally administered to mice fasted for 16 hours. The dose of the test compound was adjusted to 50 mg/kg of body weight of animal. 30, 60, 120, and 240 minutes after the administration of the test compound, blood was taken out from each mouse, and the blood sample thus obtained was centrifuged at 3,000 rpm for 20 minutes to obtain a serum sample.

[4] = in vivo; details: mouse, iv, mice, one week, Weil method
Method: as §1
In intravenous administration: Each of the test compounds was dissolved in 1N aqueous sodium hydroxide solution and thereto was added a phosphoric acid-saline buffer (pH 7.2) to prepare a test solution. The test solution was intravenously injected to ddy-strain male mice (weighing 20-25 g, five per group). One week after the administration of the test solution, the LD50 was determined in accordance with Weil method.

[5] = Bioavailability in oral administration in rats; design: species or system Wistar-strain male rats; AUC at 4 h: concentration or dose not given beside the values; details: rat, in vivo
Method: Each of the test compounds was suspended in a 0.5% sodium carboxymethylcellulose to prepare a suspension having a concentration of 5 mg/ml of the test compound.
Wistar-strain male rats (weighing 160 g ±20 g, three per group) were used. The suspension was orally administered to rats fasted 16 hours. 30, 60, 120, and 240 minutes after the administration of the test compound, blood was taken out from the rats. The blood was centrifuged at 3,000 rpm for 20 minutes to obtain a plasma sample. In the same manner as described in Experiment 2, the concentration (μg/ml) of test compound in plasma and also AUC (μg.hr/ml) were measured.

For `CCn1cc(C(=O)O)c(=O)c2cc(F)c(N3CCN(C)CC3)cc21` [B, 1-ethyl-1,4-dihydro-6-fluoro-7-[1-(4-methylpiperazinyl)]-4-oxoquinoline-3carboxylic acid], the MIC [1] was 0.39 µg/mL (≈ 1.17 µM), the LD50 at 168 h [2] was greater than 4000 mg/kg and the concentration at 0.5 h ([3]; after 30 min., read-out: Concentration in serum) was 12200 ± 2500 ng/mL. It also gave a concentration at 1 h ([3]; after 60 min., read-out: Concentration in serum) of 5400 ± 600 ng/mL, a concentration at 2 h ([3]; after 120 min., read-out: Concentration in serum) of 3500 ± 600 ng/mL and a concentration at 4 h ([3]; after 240 min., read-out: Concentration in serum) of 2300 ± 200 ng/mL. For the same compound, the AUC at 4 h ([3]; serum, 1-4 hrs.) was 17800 ng·h/mL, the LD50 at 168 h [4] was 555 mg/kg and the concentration at 0.5 h ([5]; after 30 min., read-out: Concentration in plasma) was 11800 ± 1100 ng/mL. The concentration at 1 h ([5]; after 60 min., read-out: Concentration in plasma) was 14200 ± 800 ng/mL, the concentration at 2 h ([5]; after 120 min., read-out: Concentration in plasma) was 7800 ± 300 ng/mL and the concentration at 4 h ([5]; after 240 min., read-out: Concentration in plasma) was 5000 ± 300 ng/mL. For the same compound, the AUC at 4 h ([5]; plasma, 1-4 hrs.) was 33200 ng·h/mL.
